Test results from article PMC6739345, “CAND1 regulates lunapark for the proper tubular network of the endoplasmic reticulum” (Scientific Reports, 2019).
No constants are given. Whether binding was seen depends on the method and setting. In cells and extracts the contact can be indirect. Here binding means that the protein was enriched with, or labelled near, the bait; the list need not be complete.

Sequences of proteins named here, by UniProt entry; tags and fusion partners are left off.
UniProt Q9C0E8: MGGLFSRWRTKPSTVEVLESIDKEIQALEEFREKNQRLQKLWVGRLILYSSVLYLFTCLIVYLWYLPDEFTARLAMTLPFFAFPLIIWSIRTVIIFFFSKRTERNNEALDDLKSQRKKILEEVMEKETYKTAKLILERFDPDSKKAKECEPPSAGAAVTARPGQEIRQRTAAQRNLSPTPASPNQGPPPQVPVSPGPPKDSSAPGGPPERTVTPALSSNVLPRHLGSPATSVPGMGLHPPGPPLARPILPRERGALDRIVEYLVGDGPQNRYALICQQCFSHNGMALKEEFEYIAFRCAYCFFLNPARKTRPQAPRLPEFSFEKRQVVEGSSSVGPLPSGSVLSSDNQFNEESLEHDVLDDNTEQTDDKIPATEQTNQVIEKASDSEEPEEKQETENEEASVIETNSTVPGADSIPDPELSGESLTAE

Molecular target: GST-fused Lnp (lunapark) (human) (UniProt Q9C0E8)
Assay: affinity purification with mass spectrometry; GST-Lnp immobilised on glutathione Sepharose, incubated with Triton X-100 extract of Sus scrofa brains at 4 °C overnight; eluted with 2 M NaCl; SDS-PAGE, silver staining, bands cut out for mass spectrometry; only the target purified

- binding: binds
B1: Cullin-associated and neddylation-dissociated 1 (CAND1) of Sus scrofa brain (protein, UniProt F2Z5R6 1-1229)
chain: MASASYHISNLLEKMTSSDKDFRFMATNDLMTELQKDSIKLDDDSERKVVKNLKLLEDKNGEVQNLAVKCLGPLVSKVKEYQVETIVDTLCTNMLSDKEQLRDISSIGLKTVIGELPPASSGSALAANVCKKITGRLTSAIAKQEDVSVQLEALDIMADMLSRQGGLLVNFHPSILTCLLPQLTSPRLAVRKRTIIALGHLVMSCGNIVFVDLIEHLLSELSKNDSMSTTRTYIQCIAAISRQAGHRIGEYLEKIIPLVVKFCNVDDDELREYCIQAFESFVRRCPKEVYPHVSTIINICLKYLTYDPNYNYDDEDEDENAMDADGGDDDDQGSDDEYSDDDDMSWKVRRAAAKCLDAVVSTRHEMLPEFYKTVSPALISRFKEREENVKADVFHAYLSLLKQTRPVQSWLCDPDAMEQGETPLTMLQSQVPNIVKALHKQMKEKSVKTRQCCFNMLTELVNVLPGALTQHIPVLVPGIIFSLNDKSSSSNLKIDALSCLYVILCNHSPQVFHPHVQALVPPVVACVGDPFYKITSEALLVTQQLVKVIRPLDQPSSFDATPYIKDLFTCTIKRLKAADIDQEVKERAISCMGQIICNLGDNLGSDLPNTLQIFLERLKNEITRLTTVKALTLIAGSPLKIDLRPVLGEGVPILASFLRKNQRALKLGTLSALDILIKNYSDSLTAAMIDAVLDELPPLISESDMHVSQMAISFLTTLAKVYPSSLSKISGSILNELIGLVRSPLLQGGALSAMLDFFQALVVTGTNNLGYMDLLRMLTGPVYSQSTALTHKQSYYSIAKCVAALTRACPKEGPAVVGQFIQDVKNSRSTDSIRLLALLSLGEVGHHIDLSGQLELKSVILEAFSSPSEEVKSAASYALGSISVGNLPEYLPFVLQEITSQPKRQYLLLHSLKEIISSASVVGLKPYVENIWALLLKHCECAEEGTRNVVAECLGKLTLIDPETLLPRLKGYLISGSSYARSSVVTAVKFTISDHPQPIDPLLKNCIGDFLKTLEDPDLNVRRVALVTFNSAAHNKPSLIRDLLDTVLPHLYNETKVRKELIREVEMGPFKHTVDDGLDIRKAAFECMYTLLDSCLDRLDIFEFLNHVEDGLKDHYDIKMLTFLMLVRLSTLCPSAVLQRLDRLVEPLRATCTTKVKANSVKQEFEKQDELKRSAMRAVAALLTIPEAEKSPLMSEFQSQISSNPELAAIFESIQKDSSSTNLESMDTS
